Like-named read-outs stand apart in the source and are kept apart here. No constants are given. Whether binding was seen depends on the method and setting. In cells and extracts the contact can be indirect. Some results given as binding are weak or reduced against the parent protein; the word gives no strength. Where a sequence is shown, tags or fusion partners need not be part of it.
T1: HA-tagged MARCH2 (UniProt Q9P0N8)
T1 sequence: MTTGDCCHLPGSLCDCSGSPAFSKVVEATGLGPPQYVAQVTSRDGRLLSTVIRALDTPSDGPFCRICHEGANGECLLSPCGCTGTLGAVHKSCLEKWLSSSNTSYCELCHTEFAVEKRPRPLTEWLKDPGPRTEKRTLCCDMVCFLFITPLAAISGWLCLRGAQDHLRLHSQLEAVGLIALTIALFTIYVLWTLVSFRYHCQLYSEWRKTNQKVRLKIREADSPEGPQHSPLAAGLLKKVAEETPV

Sequences of proteins named here, by UniProt entry; tags and fusion partners are left off.
UniProt P13569: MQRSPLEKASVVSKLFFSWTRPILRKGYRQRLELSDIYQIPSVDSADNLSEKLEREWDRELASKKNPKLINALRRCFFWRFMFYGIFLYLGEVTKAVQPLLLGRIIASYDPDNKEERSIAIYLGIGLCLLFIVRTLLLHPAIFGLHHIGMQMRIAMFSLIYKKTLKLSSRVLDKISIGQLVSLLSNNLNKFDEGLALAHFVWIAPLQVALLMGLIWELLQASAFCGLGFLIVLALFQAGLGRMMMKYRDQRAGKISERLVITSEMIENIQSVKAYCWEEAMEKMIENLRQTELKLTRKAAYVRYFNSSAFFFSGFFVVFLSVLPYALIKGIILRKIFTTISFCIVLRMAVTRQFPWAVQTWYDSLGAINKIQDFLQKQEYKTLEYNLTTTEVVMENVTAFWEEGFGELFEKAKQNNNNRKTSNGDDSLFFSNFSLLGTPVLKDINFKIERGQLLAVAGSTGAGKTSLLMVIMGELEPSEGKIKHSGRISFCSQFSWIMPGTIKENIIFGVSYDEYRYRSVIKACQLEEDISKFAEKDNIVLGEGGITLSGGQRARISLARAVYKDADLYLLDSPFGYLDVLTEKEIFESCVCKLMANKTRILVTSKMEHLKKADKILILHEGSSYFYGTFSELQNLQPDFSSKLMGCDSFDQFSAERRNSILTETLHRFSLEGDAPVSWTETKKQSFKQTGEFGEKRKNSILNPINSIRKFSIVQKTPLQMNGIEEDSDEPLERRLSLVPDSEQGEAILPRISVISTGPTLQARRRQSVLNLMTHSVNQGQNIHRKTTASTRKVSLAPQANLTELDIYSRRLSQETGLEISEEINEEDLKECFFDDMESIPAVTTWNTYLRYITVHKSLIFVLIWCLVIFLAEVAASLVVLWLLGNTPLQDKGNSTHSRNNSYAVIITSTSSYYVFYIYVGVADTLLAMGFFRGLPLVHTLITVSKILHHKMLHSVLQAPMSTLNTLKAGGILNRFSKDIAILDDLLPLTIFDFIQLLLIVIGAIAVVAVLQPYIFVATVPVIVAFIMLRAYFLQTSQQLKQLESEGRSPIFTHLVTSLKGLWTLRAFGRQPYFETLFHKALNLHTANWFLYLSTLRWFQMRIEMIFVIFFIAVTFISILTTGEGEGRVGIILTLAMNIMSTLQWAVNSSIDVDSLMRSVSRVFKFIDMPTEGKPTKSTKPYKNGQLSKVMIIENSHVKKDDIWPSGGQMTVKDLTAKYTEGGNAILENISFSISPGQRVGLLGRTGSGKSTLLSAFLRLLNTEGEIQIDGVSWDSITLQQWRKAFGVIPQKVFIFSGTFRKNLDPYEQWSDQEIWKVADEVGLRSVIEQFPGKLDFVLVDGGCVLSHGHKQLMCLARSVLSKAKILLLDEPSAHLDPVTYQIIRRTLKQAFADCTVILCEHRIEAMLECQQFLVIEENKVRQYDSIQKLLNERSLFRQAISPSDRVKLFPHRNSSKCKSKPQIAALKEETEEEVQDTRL

B1: myc-STX6 (protein, UniProt O43752 1-255)
chain: MSMEDPFFVVKGEVQKAVNTAQGLFQRWTELLQDPSTATREEIDWTTNELRNNLRSIEWDLEDLDETISIVEANPRKFNLDATELSIRKAFITSTRQVVRDMKDQMSTSSVQALAERKNRQALLGDSGSQNWSTGTTDKYGRLDRELQRANSHFIEEQQAQQQLIVEQQDEQLELVSGSIGVLKNMSQRIGGELEEQAVMLEDFSHELESTQSRLDNVMKKLAKVSHMTSDRRQWCAIAILFAVLLVVLILFLVL

What was measured:
HA-tagged MARCH2 [1] = target: T1, HA-tagged MARCH2; assay: co-IP; HEK293 cells co-transfected, lysates after 48 h (150 mM NaCl, 50 mM Tris-HCl pH 7.4, 1% Nonidet P-40); 500 µg supernatant with anti-HA affinity matrix at 4 °C overnight to precipitate the HA-tagged partner; immunoblot for the myc- or GFP-tagged partner; in Figure 1B also triple transfection with myc-STX6, which increased the myc-CAL precipitated by HA-MARCH2
HA-tagged MARCH2 [2] = target: T1, HA-tagged MARCH2; assay: as above; remark: listed apart in the source

Row | Molecule | binding (HA-tagged MARCH2 [1]) | binding (HA-tagged MARCH2 [2])
1 | GFP-tagged wild-type CFTR (from UniProt P13569 1-1480) | binds | 
2 | B1 |  | binds

— PMC3688601
